The supplement of paper PMC4604168 (melanoma cell lines)
The other results are listed elsewhere or left out. Many values rest on one well or one pass, so single values are uncertain.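 The apoptosis fraction was the count of cleaved-PARP antibody-stained nuclei relative to all DNA-stained nuclei, imaged in 1,536-well plates. Screening doses were set so most cells survived, and baseline and induced cleaved-PARP levels vary greatly across cell lines.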

The molecules below were run on SkMel28 (assay: cleaved PARP positive nuclei fraction relative to DMSO control; melanoma cells; higher = more apoptosis). Settings: library dose: low library concentration; 72 h.

Structure (SMILES) | cleaved PARP positive nuclei fraction [%]
CC1(C)CCC(c2ccc(Cl)cc2)=C(CN2CCN(c3ccc(C(=O)NS(=O)(=O)c4ccc(N[C@H](CCN5CCOCC5)CSc5ccccc5)c(S(=O)(=O)C(F)(F)F)c4)cc3)CC2)C1 + Cc1cc([N+](=O)[O-])ccc1NS(=O)(=O)c1cc(Cl)ccc1Cl [FH535] (first compound 0.4 µM, partner dose 1 µM) | 164
NC1(c2ccc(-c3nc4ccn5c(=O)[nH]nc5c4cc3-c3ccccc3)cc2)CCC1 + CC(C)(C)c1cnc(CSc2cnc(NC(=O)C3CCNCC3)s2)o1 [SNS-032] (first compound 0.4 µM, partner dose 0.01 µM) | 43.8
CN(c1ncccc1CNc1nc(Nc2ccc3c(c2)CC(=O)N3)ncc1C(F)(F)F)S(C)(=O)=O + O=C(O)C(=O)Nc1sc2c(c1C(=O)O)CCNC2 [TCS401] (first compound 0.08 µM, partner dose 1.66667 µM) | 275
NC1(c2ccc(-c3nc4ccn5c(=O)[nH]nc5c4cc3-c3ccccc3)cc2)CCC1 + COc1cc2c(Oc3ccc4[nH]c(C)cc4c3F)ncnc2cc1OCCCN1CCCC1 [cediranib] (first compound 0.4 µM, partner dose 0.4 µM) | 36.8
CC1(C)CCC(c2ccc(Cl)cc2)=C(CN2CCN(c3ccc(C(=O)NS(=O)(=O)c4ccc(N[C@H](CCN5CCOCC5)CSc5ccccc5)c(S(=O)(=O)C(F)(F)F)c4)cc3)CC2)C1 + C=CCn1c(=O)c2cnc(Nc3ccc(N4CCN(C)CC4)cc3)nc2n1-c1cccc(C(C)(C)O)n1 [MK1775] (first compound 0.4 µM, partner dose 0.02 µM) | 33.7
NC1(c2ccc(-c3nc4ccn5c(=O)[nH]nc5c4cc3-c3ccccc3)cc2)CCC1 + COc1ccc(-c2ccc3c(N4CCOCC4)nc(N4C[C@@H](C)O[C@@H](C)C4)nc3n2)cc1CO [KU0063794] (first compound 0.4 µM, partner dose 0.02 µM) | 177
CS(=O)(=O)c1ccc(C(=O)Nc2ccc(Cl)c(-c3ccccn3)c2)c(Cl)c1 [vismodegib] + COC(=O)c1sccc1S(=O)(=O)Nc1ccc(Nc2ccccc2)cc1OC [GSK0660] (first compound 1 µM, partner dose 1 µM) | 110
NC(=O)c1ccc(N(C(N)=O)c2c(F)cccc2F)nc1-c1ccc(F)cc1F + O=C(CCCCCCC(=O)Nc1ccccc1)NO [vorinostat] (first compound 0.4 µM, partner dose 0.08 µM) | 434
Cn1sc(=O)n(Cc2ccccc2)c1=O + O=c1cc(-c2cccc3c2Sc2ccccc2S3)oc(N2CCOCC2)c1 [KU55933] (first compound 0.4 µM, partner dose 1 µM) | 114
CCCCCCCCc1ccc(CCC(N)(CO)CO)cc1 [fingolimod] + COc1cc2ncnc(Nc3ccc(Oc4ccccc4)cc3)c2cc1OC [SrcI1] (first compound 2 µM, partner dose 2 µM) | 172
NC1(c2ccc(-c3nc4ccn5c(=O)[nH]nc5c4cc3-c3ccccc3)cc2)CCC1 + Cc1ccc(NC(=O)c2cccc(N(C)C)c2)cc1NC(=O)c1ccc(O)cc1 [ZM336372] (first compound 0.4 µM, partner dose 2 µM) | 73
COc1ccc(C2=N[C@@H](c3ccc(Cl)cc3)[C@@H](c3ccc(Cl)cc3)N2C(=O)N2CCNC(=O)C2)c(OC(C)C)c1 [Nutlin-3] + C[C@@H]1CCN(C(=O)CC#N)C[C@@H]1N(C)c1ncnc2[nH]ccc12 [CP690550] (first compound 0.1 µM, partner dose 1 µM) | 269
CS(=O)(=O)c1ccc(C(=O)Nc2ccc(Cl)c(-c3ccccn3)c2)c(Cl)c1 [vismodegib] + CC(C)(C)c1cnc(CSc2cnc(NC(=O)C3CCNCC3)s2)o1 [SNS-032] (first compound 1 µM, partner dose 0.01 µM) | 85.7
NC1(c2ccc(-c3nc4ccn5c(=O)[nH]nc5c4cc3-c3ccccc3)cc2)CCC1 + Cn1cc(/C=C2\C(=O)Nc3cccnc32)c2ccccc21 [GW441756] (first compound 0.4 µM, partner dose 0.4 µM) | 204
Cn1cnc2c(F)c(Nc3ccc(Br)cc3Cl)c(C(=O)NOCCO)cc21 [selumetinib] + O=C(Nc1cccc(Cl)c1)Nc1ncc(CCNc2ncnc3ccsc23)s1 [SNS314] (first compound 0.015 µM, partner dose 0.0008 µM) | 15.8

Individual results from the results shown:
Entry for NC1(c2ccc(-c3nc4ccn5c(=O)[nH]nc5c4cc3-c3ccccc3)cc2)CCC1 + COc1cc2c(Oc3ccc4[nH]c(C)cc4c3F)ncnc2cc1OCCCN1CCCC1 [cediranib] (first compound 0.4 µM, partner dose 0.4 µM) under cleaved PARP positive nuclei fraction [%]: 36.8
Entry for CC1(C)CCC(c2ccc(Cl)cc2)=C(CN2CCN(c3ccc(C(=O)NS(=O)(=O)c4ccc(N[C@H](CCN5CCOCC5)CSc5ccccc5)c(S(=O)(=O)C(F)(F)F)c4)cc3)CC2)C1 + C=CCn1c(=O)c2cnc(Nc3ccc(N4CCN(C)CC4)cc3)nc2n1-c1cccc(C(C)(C)O)n1 [MK1775] (first compound 0.4 µM, partner dose 0.02 µM) under cleaved PARP positive nuclei fraction [%]: 33.7
